This note sets out measurements from PubChem BioAssay AID1745846 (National Center for Advancing Translational Sciences (NCATS), 2022).

About 30 (2%) of roughly 1,400 compounds were called active. Inconclusive results (about 15%) are left out. The call rests on the fitted dose curve; in most records, active means well fitted inhibition curve with a large enough effect; inconclusive means small, poorly fitted or top-dose-only effect; inactive means flat fitted curve, though single readings scatter. Some of the results follow.
On the % scale 0 is the no-effect control and ±100 the full control effect; potency means the concentration at half of the fitted maximal effect.

The nature of this experiment: Firefly Luciferase Counterscreen for Inhibitors of ATXN expression. To be noted: luminescence; series mostly up to 57.5 µM; activity change, negative = inhibition: at the top concentration. In short, it runs like this: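 Recombinant firefly luciferase at 10 nM final in 50 mM Tris pH 7.5, 10 mM MgCl2, 0.05% BSA, 0.01% Tween20 with substrate; compounds up to 57 uM final, 10 min room temperature, end-point luminescence. Buffer-only wells define 100% inhibition.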
(In general: The purpose of a counterscreen is to sort out artefacts and off-target activity.)
Regarding `Cc1cccc(NC(c2ccc(C)s2)c2ccc3ccc(C)nc3c2O)n1` (stereo not drawn), the “activity change, negative = inhibition” value is inactive: -5.52%.
As for `Cc1ccccc1NC(=O)Nc1nc(C(N)C2CCCCC2)cs1` (stereo not drawn), the “activity change, negative = inhibition” value was inactive: 3.72%.
`COc1cc(C(=O)NC(=S)NNC(=O)c2cnccn2)cc(OC)c1OC`: the “activity change, negative = inhibition” value was inactive: -7.31%.
As to `CN1C(=O)/C(=C/c2ccccc2F)Sc2ccc(C(=O)N3CCCC3)cc21`, the “activity change, negative = inhibition” value is inactive: -14.9%.
For the compound `CC(C)(C)c1ccc(OCCn2nc(C(=O)O)c3ccccc3c2=O)cc1`, the “activity change, negative = inhibition” value was inactive: -8.32%.
In the case of `O=C(c1ccc(S(=O)(=O)c2cccc(Cl)c2)c([N+](=O)[O-])c1)N1CCN(Cc2ccccc2)CC1`, the “activity change, negative = inhibition” value was inactive: 2%.
For `COc1ccc(C(=O)N/N=C/c2cc(Br)ccc2O)cc1OC`, the “activity change, negative = inhibition” value is inactive: -8.96%.
Still for that read-out and setting: in the case of `CN(C)CCCNc1nc2cc(-c3ccc(F)cc3)sc2c(=O)n1C` it was inactive: -4.33%; in that of `O=C(Nc1c(Cl)cccc1Cl)Oc1cccc2cccnc12`, inactive: 4.64%.
Regarding `Nc1nonc1-n1nnc(C(=O)N/N=C/c2ccccc2O)c1CN1CCCC1`, the “activity change, negative = inhibition” value is inactive: -14.9%.
With `CCOC(=O)C1CCN(c2cc3c(cc2NC(=O)c2ccccc2OCC)n(C)c(=O)n3C)CC1`, the “activity change, negative = inhibition” value is inactive: -4.33%.
With `CC(NC1=CC(=O)c2cccnc2C1=O)C(O)c1ccccc1` (stereo not drawn), the “activity change, negative = inhibition” value was inactive: -12.2%.
Still for that read-out and setting: to `c1ccc(-c2cc3c(N4CCN(c5ccccc5)CC4)ncnc3s2)cc1` belongs inactive: -8.66%.
With `Cn1ncc2c(Nc3cccc(Cl)c3)nc(Nc3cccc(Cl)c3)nc21`, the “activity change, negative = inhibition” value was inactive: -15.4%.
With `O=C(NC(c1ccc(Cl)cc1)c1cc(Cl)c2cccnc2c1O)c1cccnc1` (stereo not drawn), the “activity change, negative = inhibition” value was inactive: -2.31%.
The same measure, in the same setting: in the case of `COc1ccc(O)c(/C=N/NC(=O)CCC(=O)Nc2cccc(C)c2)c1` it was inactive: -5.19%; in that of `Cc1c(N=C2N=C(NC(=O)Nc3ccc(Cl)cc3)c3ccccc32)c(=O)n(-c2ccccc2)n1C`, inactive: -0.451%; in that of `Cc1cccc(Nc2c3c(nc4ccccc24)CCC3)c1`, inactive: -0.971%.
For the compound `Cc1cc(N/N=C/c2ccc(O)cc2O)nc(-n2nc(C)cc2C)n1`, the “activity change, negative = inhibition” value is inactive: -6.93%.
As to `Cc1ccc(C2CC(=O)Nc3c2ccc2ccccc32)cc1[N+](=O)[O-]` (stereo not drawn), the “activity change, negative = inhibition” value is inactive: -4.69%.
For the compound `C[n+]1c2cc(N)ccc2cc2ccc(N)cc21`, the Potency result is “inactive”.
Regarding `CC(=O)NC(=C(Cl)Cl)S(=O)(=O)c1ccccc1`, the “activity change, negative = inhibition” value was inactive: 1.35%.
`COc1cc2c(cc1OC)C(C)N(C(=O)c1cc3c(s1)-c1ccccc1OC3)CC2` (stereo not drawn): the “activity change, negative = inhibition” value was inactive: -5.95%.
`CN(C)CCn1c2ccccc2c2nc3ccc([N+](=O)[O-])cc3cc21`: the “activity change, negative = inhibition” value is inactive: -5.41%.
Turning to `O=C(NC(c1ccccc1)c1ccc2ccccc2n1)C1CCN(CCOc2ccc(Cl)cc2Cl)CC1` (stereo not drawn), the “activity change, negative = inhibition” value was inactive: -10.2%.
In the case of `CN(C)CCNC(=O)c1cccc(-c2cnc3c(NC=O)cc(-c4cccs4)cn23)c1`, the “activity change, negative = inhibition” value was inactive: -5.21%.
Turning to `Cc1ccc2nc3cc([N+](=O)[O-])cc([N+](=O)[O-])c3cc2c1`, the “activity change, negative = inhibition” value was inactive: -5.55%.
On the same count and under the same terms, to `COc1ccccc1-c1cc2nc(-c3ccccc3)cc(N3CCN(C(=O)c4ccco4)CC3)n2n1` belongs inactive: -6.68%; to `O=C(N/N=C(\Cc1ncc[nH]1)c1ccccc1)c1ccncc1`, inactive: 2.33%; to `Cn1nnnc1Sc1ncnc2scc(-c3ccc[nH]3)c12`, inactive: -5.81%.
Consider `Cn1c(/C=C/c2ccc(Cl)cc2)c([N+](=O)[O-])c(=O)n(C)c1=O`, for which the “activity change, negative = inhibition” value was inactive: -2.66%.
Take `Cc1cccc(N2CCN(C(=O)CC(NC(=O)c3ccccc3Cl)c3ccccc3)CC2)c1C` (stereo not drawn): the “activity change, negative = inhibition” value is inactive: 0.399%.
As to `CCCNC(=O)c1ccc2c(=O)c(O)c(-c3ccc(C)cc3)[nH]c2c1`, the “activity change, negative = inhibition” value is inactive: 1.21%.
For `CCCC(=O)NC(c1ccc(Cl)cc1Cl)c1ccc2cccnc2c1O` (stereo not drawn), the “activity change, negative = inhibition” value was inactive: 3.8%.
Same read-out and setting: in the case of `COc1ccc(CSCC(=O)N/N=C/c2ccccc2O)cc1` it was inactive: -4.55%; in that of `COc1ccc(C(=O)c2c(C)c3ccccc3n2CC(O)CNC(C)C)cc1` (stereo not drawn), inactive: 1.19%.
With `CCc1ccc(OCCNc2cc(N3CCNC(C)C3)ccc2[N+](=O)[O-])cc1` (stereo not drawn), the “activity change, negative = inhibition” value is inactive: -13.4%.
For `Cc1cc(C)c2nc(N(CCCN(C)C)C(=O)c3ccc4c(c3)OCCO4)sc2c1`, the “activity change, negative = inhibition” value was inactive: 0.966%.
Take `NC(Cc1ccc(F)cc1)c1csc(NC(=O)NC(c2ccccc2)c2ccccc2)n1` (stereo not drawn): the “activity change, negative = inhibition” value is inactive: 2.44%.
On the same count and under the same terms, in the case of `OC[C@@H]1[C@@H](c2ccc(F)cc2)C(c2ccccc2)=NN1c1ccccc1` it was inactive: -0.288%; in that of `Cc1nc(SCC(=O)Nc2ccc(S(=O)(=O)N3CCOCC3)cc2)c2c(C)c(C)sc2n1`, inactive: -2.48%.
As to `N#CCc1nc2ccccc2c(=O)[nH]1`, the “activity change, negative = inhibition” value is inactive: -4.59%.
Consider `COc1ccc(C(=O)c2sc(Nc3ccccc3)nc2N)cc1OC`, for which the “activity change, negative = inhibition” value was inactive: -16.4%.
As for `Cn1c(N)c(C(=O)Nc2ccc(-c3ccccc3)cc2)sc1=S`, the “activity change, negative = inhibition” value was inactive: -17.3%.
Consider `O=C(NC1CCN(Cc2ccccc2)CC1)c1cccc(S(=O)(=O)Nc2ccc(SC(F)F)cc2)c1`, for which the “activity change, negative = inhibition” value is inactive: -18.8%.
On the same count and under the same terms, in the case of `CC(C)[C@@H]1CC[C@@H](C)C[C@H]1OC(=O)C[n+]1cc(-c2ccc(Cl)cc2)n2c1CCCCC2` it was inactive: 3.57%.
Take `Cc1cc(/C=N/n2c(COc3ccccc3)nc3ccccc3c2=O)c(O)c([N+](=O)[O-])c1`: the Potency was active: 15.8 µM.
For the compound `COc1ccc2c(c1)[nH]c1c(=O)n(/N=C/C3C(C)C=C(C)CC3C)c(=O)[nH]c12` (stereo not drawn), the “activity change, negative = inhibition” value is inactive: 2.14%.
